Pks13 thioesterase: 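Enzyme assay of the thioesterase domain of polyketide synthase 13; the read-out is not stated. Target: Polyketide synthase Pks13, Mycobacterium tuberculosis (UniProt I6X8D2). Tested at 30 µM. Higher reads as stronger inhibition (inferred from which compounds were picked for retests). Size under these conditions: about 67,000 compounds, about 300 of them at 50% or above in at least one test.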
TcHisRS: 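Enzyme assay of histidyl-tRNA synthetase; the read-out is not stated. Target: Histidine-tRNA ligase, Trypanosoma cruzi CL Brener (UniProt Q4DA54). Tested at 30 µM. The record gives no direction; compounds that gave an IC50 in retests scored well above the rest, so higher reads as stronger inhibition. Of about 69,000 compounds tested this way, about 31 (0.045%) reached 50% or more in at least one test.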
MtTrpRS: 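Enzyme assay of tryptophanyl-tRNA synthetase; the read-out is not stated. Target: Tryptophan-tRNA ligase, Mycobacterium tuberculosis (UniProt P9WFT3). Compounds at 10 µM. Higher most likely means stronger inhibition; the record gives no direction and few retests gave an IC50. Size under these conditions: about 65,000 compounds, about 64 of them at 50% or above in at least one test.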
ClpP1P2: 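Protease assay of ClpP1P2, read by the AMC dye that it sets free. Target: ClpP1P2, Mycobacterium tuberculosis (UniProt P9WPC5 and UniProt P9WPC3). Tested at 50 µM. Higher reads as stronger inhibition, judged from the few compounds that gave an IC50. Most other retested compounds had strongly negative values. Size under these conditions: about 69,000 compounds, about 10 of them at 50% or above in at least one test.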

The chains behind the UniProt entries cited, without tags or fusion partners. Residues count along the entry.
UniProt I6X8D2, whole entry: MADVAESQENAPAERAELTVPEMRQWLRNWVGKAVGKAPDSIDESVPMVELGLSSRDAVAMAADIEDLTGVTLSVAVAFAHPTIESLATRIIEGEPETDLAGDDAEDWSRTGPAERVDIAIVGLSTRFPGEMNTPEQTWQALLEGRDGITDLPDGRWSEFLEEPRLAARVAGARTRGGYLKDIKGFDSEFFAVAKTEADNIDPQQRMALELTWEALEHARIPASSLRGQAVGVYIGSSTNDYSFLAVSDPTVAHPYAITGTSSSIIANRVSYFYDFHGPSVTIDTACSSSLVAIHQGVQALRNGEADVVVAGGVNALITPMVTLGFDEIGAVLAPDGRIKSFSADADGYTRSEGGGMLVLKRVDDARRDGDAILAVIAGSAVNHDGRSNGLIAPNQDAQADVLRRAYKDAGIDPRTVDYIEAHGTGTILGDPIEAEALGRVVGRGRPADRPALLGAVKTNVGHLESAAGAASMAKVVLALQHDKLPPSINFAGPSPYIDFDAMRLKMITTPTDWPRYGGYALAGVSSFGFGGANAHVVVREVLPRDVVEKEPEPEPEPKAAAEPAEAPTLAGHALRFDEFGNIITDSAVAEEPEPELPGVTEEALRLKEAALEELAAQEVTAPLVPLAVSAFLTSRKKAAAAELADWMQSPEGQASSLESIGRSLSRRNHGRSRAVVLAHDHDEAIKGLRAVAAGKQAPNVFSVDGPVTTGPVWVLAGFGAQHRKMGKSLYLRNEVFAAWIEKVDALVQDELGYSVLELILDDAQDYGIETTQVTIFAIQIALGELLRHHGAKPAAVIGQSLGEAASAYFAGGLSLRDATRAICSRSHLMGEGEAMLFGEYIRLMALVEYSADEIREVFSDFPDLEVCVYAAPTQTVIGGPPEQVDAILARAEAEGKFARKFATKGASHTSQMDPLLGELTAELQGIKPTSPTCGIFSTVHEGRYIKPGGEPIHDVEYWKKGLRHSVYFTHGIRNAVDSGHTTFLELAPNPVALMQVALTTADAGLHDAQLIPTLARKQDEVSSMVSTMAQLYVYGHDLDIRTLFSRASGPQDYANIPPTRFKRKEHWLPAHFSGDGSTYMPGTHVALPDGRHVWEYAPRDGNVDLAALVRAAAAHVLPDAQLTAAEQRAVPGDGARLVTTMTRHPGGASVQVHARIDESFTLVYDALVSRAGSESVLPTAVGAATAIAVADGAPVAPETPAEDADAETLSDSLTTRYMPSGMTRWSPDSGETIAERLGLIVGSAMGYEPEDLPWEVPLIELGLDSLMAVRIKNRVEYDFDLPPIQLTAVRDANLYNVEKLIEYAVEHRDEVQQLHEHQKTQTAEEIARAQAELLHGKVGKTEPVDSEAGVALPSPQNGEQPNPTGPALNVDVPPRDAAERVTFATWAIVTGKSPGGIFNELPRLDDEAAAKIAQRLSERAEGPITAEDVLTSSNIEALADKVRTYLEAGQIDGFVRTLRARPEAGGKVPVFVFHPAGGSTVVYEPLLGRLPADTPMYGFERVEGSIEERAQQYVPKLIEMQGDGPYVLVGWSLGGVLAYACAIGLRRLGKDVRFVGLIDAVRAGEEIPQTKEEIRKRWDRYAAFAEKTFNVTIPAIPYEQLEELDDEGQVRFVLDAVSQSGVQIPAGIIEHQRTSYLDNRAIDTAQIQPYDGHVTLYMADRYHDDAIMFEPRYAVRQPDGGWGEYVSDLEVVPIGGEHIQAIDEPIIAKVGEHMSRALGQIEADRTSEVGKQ
UniProt Q4DA54, 1-478: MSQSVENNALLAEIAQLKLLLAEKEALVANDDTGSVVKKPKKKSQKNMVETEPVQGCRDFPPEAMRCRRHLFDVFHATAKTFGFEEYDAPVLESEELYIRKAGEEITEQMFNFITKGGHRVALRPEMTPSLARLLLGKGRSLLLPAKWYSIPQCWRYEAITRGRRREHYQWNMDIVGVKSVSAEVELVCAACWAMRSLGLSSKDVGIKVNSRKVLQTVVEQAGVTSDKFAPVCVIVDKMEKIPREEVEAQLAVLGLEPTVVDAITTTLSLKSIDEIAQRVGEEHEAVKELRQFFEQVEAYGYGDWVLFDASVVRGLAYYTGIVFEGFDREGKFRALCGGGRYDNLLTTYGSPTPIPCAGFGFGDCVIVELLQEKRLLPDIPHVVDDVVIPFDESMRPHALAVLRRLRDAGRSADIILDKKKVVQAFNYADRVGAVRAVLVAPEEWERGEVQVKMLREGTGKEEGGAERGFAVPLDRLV
UniProt P9WFT3, whole entry: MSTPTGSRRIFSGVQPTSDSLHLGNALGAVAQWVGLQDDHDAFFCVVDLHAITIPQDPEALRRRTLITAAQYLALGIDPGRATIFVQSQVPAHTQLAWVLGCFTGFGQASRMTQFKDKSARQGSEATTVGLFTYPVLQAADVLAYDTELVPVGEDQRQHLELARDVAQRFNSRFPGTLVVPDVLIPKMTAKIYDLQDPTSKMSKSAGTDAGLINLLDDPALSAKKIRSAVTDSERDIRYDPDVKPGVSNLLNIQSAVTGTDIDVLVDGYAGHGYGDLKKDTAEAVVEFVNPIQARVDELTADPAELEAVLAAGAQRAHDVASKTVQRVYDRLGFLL
UniProt P9WPC5, whole entry: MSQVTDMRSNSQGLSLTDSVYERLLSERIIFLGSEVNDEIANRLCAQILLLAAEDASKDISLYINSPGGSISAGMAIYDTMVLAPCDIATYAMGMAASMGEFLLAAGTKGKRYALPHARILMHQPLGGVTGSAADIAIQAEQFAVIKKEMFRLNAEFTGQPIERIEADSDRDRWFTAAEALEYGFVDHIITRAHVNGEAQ
UniProt P9WPC3, whole entry partner: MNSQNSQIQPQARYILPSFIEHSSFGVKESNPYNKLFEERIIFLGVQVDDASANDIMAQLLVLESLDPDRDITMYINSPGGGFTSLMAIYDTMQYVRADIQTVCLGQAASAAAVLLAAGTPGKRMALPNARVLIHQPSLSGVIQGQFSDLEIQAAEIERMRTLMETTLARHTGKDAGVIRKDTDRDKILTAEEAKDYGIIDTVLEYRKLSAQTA

Results are given as percent effect.
How 0% and 100% were set is not recorded. Most values in the screen are low, and negative values occur.
Compounds were drawn at random from those tested, without regard to their results.

COc1ccc(-c2noc(CNC(C)Cn3cccn3)n2)c(OC)c1 (stereo unspecified) gave Pks13 thioesterase: -15.64%; TcHisRS: 1.515%; MtTrpRS: 4.191%; ClpP1P2: 15.04%. Cc1cnn(CC(C)Nc2nc3ccccc3o2)c1 (stereo unspecified) read Pks13 thioesterase: 2.339%; TcHisRS: 0%; MtTrpRS: 3.661%; ClpP1P2: 1.263%. With O=C(O)C1(Cc2cccc(-c3cccs3)c2)CCCNC1 (stereo unspecified) the screen gave Pks13 thioesterase: -19.23%; TcHisRS: 1.515%; MtTrpRS: 9.675%; ClpP1P2: 15.56%. Cc1cc(C(=O)N2CCN(C(=O)Cc3ccccn3)CC2)c(C)s1 read Pks13 thioesterase: -8.392%; TcHisRS: 7.895%; MtTrpRS: 0.2924%; ClpP1P2: 7.493%. Cn1ccc(C(=O)N2CCCCC23CC(=O)N(Cc2ccccc2)C3)n1 (stereo unspecified) read Pks13 thioesterase: -32.96%; TcHisRS: 7.767%; MtTrpRS: 8.488%; ClpP1P2: -6.728%. For N[C@H]1c2ccccc2C[C@@H]1NC(=O)C1CCN(Cc2ccco2)CC1 the result was Pks13 thioesterase: -2.792%; TcHisRS: 10.89%; MtTrpRS: 7.154%; ClpP1P2: -10.72%.

Result for CCn1cnnc1CNC(=O)N1CCOC(c2ccccc2Cl)C1 (stereo unspecified) was Pks13 thioesterase: -10.62%; TcHisRS: 7.407%; MtTrpRS: 0.4112%; ClpP1P2: -2.972%. For CC1CCN(C(=O)c2occc2COc2cccc(C#N)c2)CC1 the result was Pks13 thioesterase: -6.425%; TcHisRS: -4.386%; MtTrpRS: -0.1434%; ClpP1P2: -6.002%. CN(C)c1nccc(C2CCN(c3ncccn3)CC2)n1 gave Pks13 thioesterase: 9.297%; TcHisRS: 3.448%; MtTrpRS: -0.3524%; ClpP1P2: -24.82%. Result for Cc1cnn(CC2CCCN2C(=O)c2csc(C3CC3)n2)c1 (stereo unspecified) was Pks13 thioesterase: -19.3%; TcHisRS: 7.289%; MtTrpRS: 0.3762%; ClpP1P2: -28.2%. CCSc1nnc([C@@H](N)CC(C)C)o1 read Pks13 thioesterase: -6.77%; TcHisRS: 4.167%; MtTrpRS: -5.147%; ClpP1P2: -17.16%. CSCc1cc(F)ccc1CNC(=O)N1CCCC(CO)C1 (stereo unspecified) gave Pks13 thioesterase: -15.2%; TcHisRS: 4.255%; MtTrpRS: -5.054%; ClpP1P2: 4.352%.

O=C(Cn1cccc1)NCC1CCN(Cc2cc3ccccc3[nH]2)C1 (stereo unspecified) gave Pks13 thioesterase: -7.873%; TcHisRS: 1.205%; MtTrpRS: -1.503%; ClpP1P2: -18.22%. With CCc1nnc(CN(CC)C(=O)C2CC(=O)N(CC)C2)o1 (stereo unspecified) the screen gave Pks13 thioesterase: -3.391%; TcHisRS: 0.8%; MtTrpRS: 2.093%; ClpP1P2: -9.673%. CC(c1ccc(F)cc1F)N1CCN(CCC(=O)NC(N)=O)CC1 (stereo unspecified) gave Pks13 thioesterase: -11.32%; TcHisRS: 1.739%; MtTrpRS: 0.3564%; ClpP1P2: -3.497%. O=S(=O)(CCO)Cc1ccc(OC(F)F)cc1 read Pks13 thioesterase: -43.56%; TcHisRS: 9.091%; MtTrpRS: -4.438%; ClpP1P2: -0.3702%. Cc1cc(Cl)ccc1-n1ncc(C(=O)NCC2COC(C)(C)O2)c1N (stereo unspecified) read TcHisRS: 7.955%; ClpP1P2: 9.418%. With Cc1ccc2cc(C3(O)CCN(C)CC3)ccc2n1 the screen gave Pks13 thioesterase: -13.88%; TcHisRS: 2.116%; MtTrpRS: 2.308%; ClpP1P2: -6.272%.

CS(=O)(=O)NC1CCN(Cc2ccc(OCc3ccccn3)cc2)CC1 gave Pks13 thioesterase: -10.22%; TcHisRS: 3.247%; MtTrpRS: -1.102%; ClpP1P2: 0.8174%. Result for CN(C)CC1(O)CCCN(Cc2ccccc2OCC(=O)N(C)C)C1 (stereo unspecified) was Pks13 thioesterase: -17.86%; TcHisRS: 4.255%; MtTrpRS: -3.43%; ClpP1P2: -3.189%. For CC(NC(=O)NCCCNS(C)(=O)=O)c1ccncc1 (stereo unspecified) the result was Pks13 thioesterase: -7.038%; TcHisRS: 1.128%; MtTrpRS: -1.267%; ClpP1P2: 8.744%. CO[C@@H]1CO[C@@]2(CCCN(C(=O)N3CCCC3)C2)C1 read Pks13 thioesterase: -8.032%; TcHisRS: 9.524%; ClpP1P2: -0.3208%. Result for Cc1noc(C)c1CN(C)CCC(=O)N1CCc2sccc2C1 was Pks13 thioesterase: -15.47%; TcHisRS: 0.3774%; MtTrpRS: 0.08446%; ClpP1P2: -0.2626%. Result for Cc1cnccc1CN1CC[C@@](C)(O)[C@H](Oc2cccc(F)c2)C1 was Pks13 thioesterase: 16.03%; TcHisRS: 13.19%; ClpP1P2: -9.995%.

With CSc1ncccc1C(=O)N(C)C(C)Cc1ccccn1 (stereo unspecified) the screen gave Pks13 thioesterase: -22.55%; TcHisRS: -21.59%; MtTrpRS: -3.82%; ClpP1P2: 9.869%. CCn1cc(NC(=O)NC2CCCc3c2cnn3CCO)cn1 (stereo unspecified) gave Pks13 thioesterase: -9.636%; TcHisRS: 2.905%; MtTrpRS: -0.7105%; ClpP1P2: -8.752%. CCN(CC(C)C#N)C(=O)CNc1ccc(F)c(C)c1 (stereo unspecified) gave Pks13 thioesterase: -8.494%; TcHisRS: 3.03%; MtTrpRS: 1.935%; ClpP1P2: -10.72%. For CCS(=O)(=O)N1CC[C@@H]2[C@H](CC1)N(Cc1cccc(C)n1)CCS2(=O)=O the result was Pks13 thioesterase: -37.28%; TcHisRS: 5.376%; MtTrpRS: -2.044%; ClpP1P2: 7.106%. For CCCc1n[nH]c(C2CN(C(=O)c3ccnc(C4CC4)n3)CCO2)n1 (stereo unspecified) the result was Pks13 thioesterase: -12.53%; TcHisRS: 6.706%; MtTrpRS: -0.7523%; ClpP1P2: -34.03%. O=C(O)c1ccc(F)c(S(=O)(=O)N2CCOc3ccccc32)c1 read Pks13 thioesterase: -7.358%; TcHisRS: -0.2933%; MtTrpRS: 5.348%; ClpP1P2: -19.15%.

Result for O=S(=O)(NCC(O)c1ccc(C(F)(F)F)cc1)C1CC1 (stereo unspecified) was Pks13 thioesterase: 6.983%; TcHisRS: 3.093%; MtTrpRS: 11.02%; ClpP1P2: -3.762%.

The last 4 entries again:

{"structure": "CCS(=O)(=O)N1CC[C@@H]2[C@H](CC1)N(Cc1cccc(C)n1)CCS2(=O)=O", "Pks13 thioesterase": -37.28, "TcHisRS": 5.376, "MtTrpRS": -2.044, "ClpP1P2": 7.106}
{"structure": "CCCc1n[nH]c(C2CN(C(=O)c3ccnc(C4CC4)n3)CCO2)n1", "stereo": "stereo unspecified", "Pks13 thioesterase": -12.53, "TcHisRS": 6.706, "MtTrpRS": -0.7523, "ClpP1P2": -34.03}
{"structure": "O=C(O)c1ccc(F)c(S(=O)(=O)N2CCOc3ccccc32)c1", "Pks13 thioesterase": -7.358, "TcHisRS": -0.2933, "MtTrpRS": 5.348, "ClpP1P2": -19.15}
{"structure": "O=S(=O)(NCC(O)c1ccc(C(F)(F)F)cc1)C1CC1", "stereo": "stereo unspecified", "Pks13 thioesterase": 6.983, "TcHisRS": 3.093, "MtTrpRS": 11.02, "ClpP1P2": -3.762}

From ChEMBL document CHEMBL3988442, “University of Dundee, Small-Polar-MMV Screening Library” (2021).